Percent effect of library compounds

Amino acid sequences for entries named in this document (tags omitted). Residues count along the entry.
UniProt Q4DA54, 1-478: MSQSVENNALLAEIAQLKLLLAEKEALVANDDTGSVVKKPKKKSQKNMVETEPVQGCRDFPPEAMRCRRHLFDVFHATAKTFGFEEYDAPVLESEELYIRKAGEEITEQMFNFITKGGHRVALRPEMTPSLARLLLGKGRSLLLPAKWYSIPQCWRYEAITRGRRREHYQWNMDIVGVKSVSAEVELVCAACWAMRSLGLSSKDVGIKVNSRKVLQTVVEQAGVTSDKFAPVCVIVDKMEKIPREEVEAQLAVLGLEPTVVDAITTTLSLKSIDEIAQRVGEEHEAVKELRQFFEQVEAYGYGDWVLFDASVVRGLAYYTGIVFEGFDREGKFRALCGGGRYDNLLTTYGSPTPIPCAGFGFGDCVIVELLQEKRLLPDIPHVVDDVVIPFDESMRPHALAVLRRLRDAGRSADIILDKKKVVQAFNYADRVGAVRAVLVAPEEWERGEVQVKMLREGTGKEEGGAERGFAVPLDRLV

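Histidine-tRNA ligase, Trypanosoma cruzi CL Brener (UniProt Q4DA54). Enzyme assay of histidyl-tRNA synthetase; the read-out is not stated. Concentration: 30 µM. Direction is inferred from retests: higher values go with stronger inhibition. Size under these conditions: about 69,000 compounds, about 31 of them at 50% or above in at least one test.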

Each number is a percent effect as filed. How 0% and 100% were set is not recorded. Most values in the screen are low, and negative values occur. This is an unselected part of the compounds tested.

| structure | effect |
|---|---|
| `O=C(c1cc(Cl)ccc1F)N1CCCC1Cn1cccn1` (stereo not drawn) | 2.564% |
| `O[C@@H]1C[C@@H](c2nc(Cc3ccccc3)no2)N(Cc2ncc[nH]2)C1` | 5.941% |
| `CCN(CC)C(=O)CCNC(=O)N(C)Cc1ccc(SC)c(OC)c1` | 2.174% |
| `COc1ncccc1CN1Cc2nccn2CC(CN2CCCC2)C1` (stereo not drawn) | 3.315% |
| `Cc1ccc(N2CCCc3sc(C(=O)NCc4ccncc4)nc32)nn1` | 3.483% |
| `Oc1cc(-c2ccsc2)nc(C2CCN(Cc3ccncc3)CC2)n1` | 1.55% |
| `Cc1cnc(CN(C)C2CCN(Cc3cnc(C)s3)C2)o1` (stereo not drawn) | 2.41% |
| `O=C(NCCNc1ncccn1)N1CCSCC1` | 2.256% |
| `CC(C)c1ncc2c(n1)CN(Cc1cccc3c1OCCO3)CC2` | 17.02% |
| `O=C(CCN1CCOCC1)Nc1cccc(CNCc2cccs2)c1` | 3.867% |
| `CCCc1nc(C[S+]([O-])Cc2cn3cccc(C)c3n2)no1` (stereo not drawn) | 10% |
| `Cc1cnn(CC2CN(CC(=O)Nc3cc(C)on3)CCO2)c1` (stereo not drawn) | 5.294% |
| `c1cc(CN2CCCn3cnc(COCC4CC4)c3C2)co1` | 6.122% |
| `O=C(NCC(F)F)c1cnc(C2CCCN2)cn1` (stereo not drawn) | 4.545% |
| `Cc1cc2nc(C(C)C)cc(N3CCC(Oc4ncccn4)CC3)n2n1` | 1.98% |
| `O=C(O)c1ccccc1-c1ccc(CNC(=O)C2CCOCC2)cc1` | 5.303% |
| `COCCn1ccnc1CN1CCc2[nH]cnc2C1c1ccccn1` (stereo not drawn) | -3.96% |
| `CC(C#N)CN(C)C(=O)CCNC(=O)C(C)(C)C` (stereo not drawn) | 9% |
| `CCn1cnnc1CNC(=O)NC(c1ccc(OC)cc1)C1CC1` (stereo not drawn) | 10.23% |
| `CC(C)C(CNC(=O)NCc1cc[nH]n1)N1CCOCC1` (stereo not drawn) | 3.529% |
| `Cc1ccc(CN2CCOC3(CCCN(C(=O)c4ccco4)C3)C2)o1` (stereo not drawn) | 3.483% |
| `Cc1cccc(S(=O)(=O)N2CC[C@H]3[C@H]2CCN3c2ncccn2)c1` | 4.908% |
| `O=C1CCOC[C@]2(CN(Cc3ccccc3)C[C@H]2c2ccccc2)N1` | 4.857% |
| `Cc1cccc2cc(CO)c(N3Cc4cnc(C(C)(C)C)nc4C3)nc12` | 7.179% |
| `CNS(=O)(=O)CC(=O)NC(C)Cc1cccc(Cl)c1` (stereo not drawn) | 0.4878% |
| `CN(C)C[C@@H]1CN(C(=O)Cc2cccc(O)c2)C[C@@H]1CO` | 3.03% |
| `Cc1nccn1CCC1CCCCN1C(=O)c1ccc(N(C)C)cc1` (stereo not drawn) | 4.469% |
| `O=C(c1ccc(=O)[nH]n1)N1CC(c2nc(Cc3ccccc3)no2)C1` | 2.479% |
| `Cc1cc(-n2cncn2)ccc1C(=O)N(C)CC(F)(F)C(F)(F)F` | 4.202% |
| `COC(=O)[C@H]1CCCCN1C(=O)c1cccc(-n2cccn2)c1` | -1.734% |
| `CN(C)CCNC(=O)c1nc2c(o1)CN(C(=O)c1cccnc1)C2` | 7.843% |
| `O=C(NC1CCN(C2CC2)CC1)c1cc(Cl)ccc1-n1cnnn1` | -3.261% |
| `CCC1(CC)Cc2ccccc2-c2nc(CN(C)C)nc(O)c21` | 1.087% |
| `Cc1ccc(-n2nnc(C(=O)O)c2C)c(C)c1` | 13.86% |
| `Cc1cccc(CN2C[C@@H]3[C@@H](C(=O)NCC(C)C)CCS(=O)(=O)[C@@H]3C2)c1` | 2.804% |
| `COc1ccc2c(c1)NC(=O)C2OC(=O)Cc1ccccc1C` (stereo not drawn) | 5% |
| `O=C(NC[C@H]1OC[C@@H](NC(=O)c2ccccc2)[C@@H]1O)c1ccncc1` | -0.4975% |
| `CN(C)c1cc2c(nn1)CCN(C(=O)c1cc3c(s1)CCC3)C2` | 4.082% |
| `O=C(Nc1cccc(C(F)(F)F)c1)C1CC(=O)N(Cc2ccccn2)C1` (stereo not drawn) | -4.167% |
| `CS(=O)(=O)NC1CCCN(C(=O)NCc2ccoc2)C1` (stereo not drawn) | 6.122% |
| `COc1ccc(COCC(O)CNC(=O)c2ccc(C)c(F)c2)cc1` (stereo not drawn) | 2.817% |
| `O=C(C1CCC1)N1CCn2c(COc3ncccn3)nnc2C1` | 2.732% |
| `O=C(Cc1ccccc1O)Nc1ccc(N2CCCC2)nc1` | 6.077% |
| `CNC(=O)NC(=O)C(C)N(C)CCCc1cc(-c2ccccc2)no1` (stereo not drawn) | 4.373% |
| `O=C(c1ccc(C2CCCO2)s1)N1CCS(=O)(=O)CC1` (stereo not drawn) | 0.8333% |
| `CN(Cc1csc(-c2cccs2)n1)C(=O)CCn1ccc(=O)[nH]c1=O` | -16.09% |
| `Cc1ccc(S(=O)(=O)Nc2ccc(=O)n(C)c2)cc1` | 2.256% |
| `Cc1cccc(CN2CC[C@H]3O[C@H](C(=O)Nc4cnccn4)CC[C@H]32)n1` | 12.06% |
| `O=C(c1ccc[nH]1)N1CCOCC2(CCN(C3CCOCC3)C2)C1` (stereo not drawn) | -1.22% |
| `O=c1ccc2c([nH]1)CCC(NS(=O)(=O)C1CC1)C2` (stereo not drawn) | 13.97% |
| `Cc1ccc(OCC(=O)NCc2ccccc2F)nc1` | 3.306% |
| `Cc1nnsc1C(=O)NCCn1ccc(-c2ccncc2)n1` | -1.205% |
| `Cc1ccc(Cn2c(=O)[nH]c3cccnc3c2=O)cc1` | -1.031% |
| `CCNc1c(NC(=O)NC(C)C)c(=O)oc2ccccc12` | -3.509% |
| `Cc1noc(C)c1CN1CCO[C@H]2CNC[C@H]21` | 2.732% |

Some entries from above, unchanged:

structure	effect
Cc1cc(-n2cncn2)ccc1C(=O)N(C)CC(F)(F)C(F)(F)F	4.202%
CNC(=O)NC(=O)C(C)N(C)CCCc1cc(-c2ccccc2)no1 (stereo not drawn)	4.373%
O=C(c1ccc(=O)[nH]n1)N1CC(c2nc(Cc3ccccc3)no2)C1	2.479%
O=C(NCCNc1ncccn1)N1CCSCC1	2.256%

The values are deposited in ChEMBL (CHEMBL3988442, “University of Dundee, Small-Polar-MMV Screening Library” (2021)).